# Screening data, single-dose tests

Sequences of proteins named here, by UniProt entry; tags and fusion partners are left off. Residues count along the entry.
UniProt Q4DA54, 1-478: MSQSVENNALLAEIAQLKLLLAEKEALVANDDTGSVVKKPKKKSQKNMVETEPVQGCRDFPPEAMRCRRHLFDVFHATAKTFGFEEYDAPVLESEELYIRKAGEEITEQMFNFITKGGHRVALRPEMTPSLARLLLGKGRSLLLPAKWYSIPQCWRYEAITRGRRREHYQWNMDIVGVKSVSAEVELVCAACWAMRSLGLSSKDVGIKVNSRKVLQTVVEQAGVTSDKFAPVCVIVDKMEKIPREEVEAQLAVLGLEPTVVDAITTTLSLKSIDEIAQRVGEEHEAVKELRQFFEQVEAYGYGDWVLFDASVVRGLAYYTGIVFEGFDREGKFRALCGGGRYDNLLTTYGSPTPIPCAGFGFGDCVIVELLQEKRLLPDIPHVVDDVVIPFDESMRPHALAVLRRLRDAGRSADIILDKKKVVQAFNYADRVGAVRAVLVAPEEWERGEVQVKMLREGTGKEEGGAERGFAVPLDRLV
UniProt A4I591, 1-473: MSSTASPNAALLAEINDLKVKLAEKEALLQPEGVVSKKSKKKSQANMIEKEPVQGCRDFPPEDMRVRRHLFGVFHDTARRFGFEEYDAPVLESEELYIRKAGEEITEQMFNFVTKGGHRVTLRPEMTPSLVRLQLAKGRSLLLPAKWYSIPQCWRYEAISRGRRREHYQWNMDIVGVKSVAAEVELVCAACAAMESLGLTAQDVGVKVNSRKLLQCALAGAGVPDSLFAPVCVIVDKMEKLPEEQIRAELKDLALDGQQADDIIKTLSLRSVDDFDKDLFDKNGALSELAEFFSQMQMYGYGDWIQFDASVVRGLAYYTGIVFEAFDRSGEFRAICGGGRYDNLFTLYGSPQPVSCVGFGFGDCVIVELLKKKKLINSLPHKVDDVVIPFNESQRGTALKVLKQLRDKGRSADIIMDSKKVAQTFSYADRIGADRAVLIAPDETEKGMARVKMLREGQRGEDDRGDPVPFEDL
UniProt Q8IDJ8, 1-583: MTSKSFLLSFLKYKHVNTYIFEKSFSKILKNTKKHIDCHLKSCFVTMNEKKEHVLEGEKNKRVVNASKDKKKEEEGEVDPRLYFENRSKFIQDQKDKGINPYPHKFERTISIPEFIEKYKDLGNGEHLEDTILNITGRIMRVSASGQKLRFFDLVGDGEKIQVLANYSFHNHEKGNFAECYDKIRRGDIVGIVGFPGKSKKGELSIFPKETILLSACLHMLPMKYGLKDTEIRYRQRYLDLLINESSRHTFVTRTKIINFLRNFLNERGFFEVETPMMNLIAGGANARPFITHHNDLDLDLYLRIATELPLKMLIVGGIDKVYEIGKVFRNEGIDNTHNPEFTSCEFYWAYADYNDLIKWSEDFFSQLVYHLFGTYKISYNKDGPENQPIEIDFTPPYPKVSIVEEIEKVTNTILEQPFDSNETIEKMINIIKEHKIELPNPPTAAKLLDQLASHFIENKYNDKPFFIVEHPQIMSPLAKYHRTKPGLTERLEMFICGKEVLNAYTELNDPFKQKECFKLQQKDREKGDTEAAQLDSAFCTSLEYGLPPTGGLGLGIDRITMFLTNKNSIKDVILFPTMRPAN

Results are given as percent effect.
The record does not define 0% and 100%; most values in the screen are far below 50% and negative numbers occur (in some assays of this library far below -100).
Compounds were drawn at random from those tested, without regard to their results.

TcHisRS: 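Enzyme assay of histidyl-tRNA synthetase; the read-out is not stated. Target: Histidine-tRNA ligase, Trypanosoma cruzi CL Brener (UniProt Q4DA54). Tested at 30 µM. Higher reads as stronger inhibition (inferred: compounds with an IC50 in retests scored well above the rest). About 69,000 compounds were tested under these conditions; 0.045% (about 31) showed 50% or more at least once.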
LiHisRS: 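Histidine-tRNA ligase, Leishmania infantum (UniProt A4I591). Enzyme assay of histidyl-tRNA synthetase; the read-out is not stated. Concentration: 30 µM. Higher reads as stronger inhibition (inferred: compounds with an IC50 in retests scored well above the rest). The assay is labelled LdHisRS but filed under L. infantum. About 69,000 compounds were tested under these conditions; 0.6% (about 410) showed 50% or more at least once.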
PfKRS1: 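Enzyme assay of the cytosolic lysyl-tRNA synthetase in 384-well plates, read by luminescence. Target: Lysine-tRNA ligase, Plasmodium falciparum 3D7 (UniProt Q8IDJ8). Tested at 30 µM. Direction is inferred from only a few compounds that gave an IC50; most scored high, so higher reads as stronger inhibition. Size under these conditions: about 69,000 compounds, about 49 of them at 50% or above in at least one test.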

SMILES,TcHisRS,LiHisRS,PfKRS1
CNC(=O)CCS(=O)(=O)Cc1nnnn1-c1ccccc1,0.4926,19.48,5.12
CC(=O)NCC(=O)N1C[C@@H]2CC[C@H](Oc3ccccc3Cl)[C@@H]2C1,-2.222,-47.42,-1.656
C[C@@H]1CN(Cc2c[nH]c(CC3CCCC3)n2)CC[C@]1(C)O,7.792,25.71,2.109
CC(=O)NC1CCN(C(=O)Nc2cccc(C(F)(F)F)c2)CC1,5.063,-6.25,1.52
CNc1ncc(CN(C)c2nccc(CCC(F)(F)F)n2)cn1,6.494,17.14,2.47
Cc1c(C(=O)N2CCC2(C)C)nnn1-c1cccc2cccnc12,-1.724,13.39,4.041
CN(CCC#N)C(=O)CN1CCCC1c1cccs1 (stereo not given),-8.718,14.29,3.91
COCCN(Cc1noc(-c2ccc(OC)cc2)n1)C1CC1,5.155,8.571,-2.531
CCn1nnc2c1C(COC)CN(C(=O)COc1ccccc1)C2 (stereo not given),1.604,7.692,8.972
CC(C)[C@H](NC(=O)NC1CCS(=O)(=O)C1)C(=O)NCc1cccnc1 (stereo not given in full),2.732,-1.942,0.5714
COCc1cc(N2CCN(c3ccc(Cl)cn3)CC2)n2nccc2n1,4.124,-2.857,2.08
COCc1cc(CNC(=O)c2c(C)c(C)cc(C)c2C)n[nH]1,1.02,4.959,0.7087
O=C1CC(NCc2ccc(OC(F)F)cc2)CN1Cc1cccc(F)c1 (stereo not given),3.333,3.774,-4.75
O=C(Cc1ccsc1)N1CCC(O)(CN2CCc3ccccc3C2)C1 (stereo not given),3.297,15.94,2.108
Cc1ccc(C(=O)Nc2ccccc2F)n1C,6.931,19.57,5.729
OC1CCN(c2ccccc2NCc2nc(-c3cccs3)no2)CC1,12.26,19.19,6.594
CC(C)=CCN1C(=O)[C@H]2CC[C@@H]1CN(C(=O)CCc1nc(Cl)n[nH]1)C2,2.41,20.51,7.101
COc1ccc(CC(=O)NC2CCc3nc(C)cn3C2)cc1 (stereo not given),0,6.25,0.7319
Cc1noc(C)c1CN(C)Cc1nc(N)c2ccccc2n1,10.78,4.202,-7.942
COCCN1CCCC(O)(CN2CCN(c3ccncc3C)CC2)C1=O (stereo not given),4.082,22.22,4.722
COc1ccc(CC(=O)N2CC[C@@]3(O)CCNC[C@H]3C2)c(OC)c1,0,1.639,-0.3369
O=C(COc1coc(CN2CCSCC2)cc1=O)c1ccccc1,3.659,26.32,10.18
CC(=O)NCC(=O)N1CCN(C)c2ncccc2C1,6.122,7,-0.8446
CCC(NCCn1cc(C)cn1)C(=O)Nc1cc(C)on1 (stereo not given),6.173,15.69,7.091
CS(=O)(=O)Nc1ccc(CNC(=O)CN2CCc3ccccc32)cc1,0.9852,28.77,4.186
CC(O)CN1CCC(CN(C)C(=O)NC2CC2)CC1 (stereo not given),1.657,11.46,2.047
Cc1ccc(S(=O)(=O)N2CC[C@@H]3C[C@H](NC(=O)c4ccncc4)[C@@H]32)cc1,1.916,4.317,1.367
CN1CCOC[C@H]1c1nc(-c2ccc(F)cc2F)c[nH]1,12.87,13.89,5.149
Cc1ccc(CN2CC[C@H]3[C@@H]2CCC(=O)N3CCN2CCCC2)s1,4.918,5.109,-6.59
Cc1nccn1-c1cc(CNC(=O)C(C)(C)C)ccn1,-0.8264,15.38,7.152
O=C(c1ccncc1)N1CCC(c2nc(O)cc(-c3cccnc3)n2)C1 (stereo not given),0.5464,9.489,3.396
O=C(O)CC(CC(=O)N(Cc1ccsc1)C1CC1)c1cccs1 (stereo not given),0.5291,12,5.123
CN(C)C1(CNC(=O)C2CCCN2Cc2ccc(F)cc2)CCOCC1 (stereo not given),12.07,18.42,8.952
CN(Cc1ccc(F)cc1)CC1(O)CCN(C(=O)c2ccccn2)C1 (stereo not given),-1.111,6.186,3.925
Cc1nc(-c2ccc(S(=O)(=O)N3CCC=C(F)C3)cc2)co1,-3.614,8,-0.2182
Cn1cnc2cc(C(=O)NS(=O)(=O)c3ccccc3Cl)ccc21,12.71,7.229,3.052
CCN1CCN(c2cncc(Cl)n2)CC1,3,0,-3.933
CNC(=O)c1cccc(CCNS(C)(=O)=O)c1,2.041,13.89,3.79
CN(C)CCO[C@@H]1CC[C@H]2[C@H]1OCCN2C(=O)c1ccncc1,3.738,13.89,2.199
COc1ccc(CNC(Cc2ccsc2)c2ccc(C)cn2)cc1OC (stereo not given),8.462,11.27,1.627
Cc1noc(C(C)N2CCN(CC(=O)N3CCOCC3)CC2)n1 (stereo not given),-2.174,14.29,0.8706
CCc1noc(C(C)N2CCC(NS(=O)(=O)c3ccccc3)CC2)n1 (stereo not given),5.882,3.333,-1.453
Cc1nc[nH]c1CN1C[C@@H]2CC[C@H](C1)N(C(=O)CCn1cncn1)C2,1.339,13.58,6.709
CN(C)CCn1c([C@H]2CCCO2)cc2cccnc21,6.383,17.71,5.243
Cc1cnn(C2CN(Cc3ccc4c(c3)OCCO4)C2)c1,10.37,-66.99,9.255
CN(C)CCN1CC2(CCCN(c3ccc(Cl)cn3)C2)CCC1=O (stereo not given),6.329,4.167,1.734
Cc1cc(OC(F)F)c(C(=O)N2CCN(C3CC3)CC2)s1,9.278,16.48,6.672
CCOC(=O)C1CC2(CCCCC2)N2CCC(=O)N12 (stereo not given),5.618,6.122,5.483
CN(C)C(=O)NCC1CC2(CO1)CN(c1nncs1)C2 (stereo not given),6.63,8.108,3.922
CC(NC(=O)N1CCC[C@H]1CO)c1noc(-c2ccccc2)n1 (stereo not given in full),9.497,2.632,0.3852
CCCN1CCc2nc(SCc3c(C)cc(C)cc3C)[nH]c(=O)c2C1,10.31,24.35,0.6677
Cc1ccccc1Cc1nc(CSc2nnc(N)n2C)no1,2.381,7.752,-2.294
CNC(=O)c1cc(C)ccc1NCc1cn2cc(C)ccc2n1,5.699,15.05,4.3
N#Cc1ccc(N2CCC(c3nc(C(F)(F)F)c[nH]3)CC2)nc1,6.494,13.33,2.898
CC(O)CN1CCN(Cc2coc(-c3cccc(Cl)c3)n2)CC1 (stereo not given),1.235,5.882,0.7853
Cc1ccc(CNC(=O)NC2CCC(O)CC2)c(N2CCCC2)c1 (stereo not given),0,6.667,1.807
CC(C)Cc1noc(C2CCCN(C(=O)CCc3cnn(C)c3)C2)n1 (stereo not given),4.386,10.71,2.709
CC(c1ccccn1)N(C)Cc1ccc(CCC(C)(C)O)cc1 (stereo not given),-1.734,14.67,0.5729
Cc1ccc(S(=O)(=O)NC(CO)CC(C)C)cc1N(C)C (stereo not given),7.182,43.37,2.323
Cn1ncc2c1CCCN(C(=O)C1CCCC1)C2,9.848,8.696,1.978
COC(=O)CC(C1=Cc2ccccc2OC1)c1oc(C)cc(=O)c1O (stereo not given),-1.205,23.08,2.1
CCc1cnc(CN(C(C)=O)C2CCN(CC(=O)N3CCCC3)C2)o1 (stereo not given),5.202,4.464,0.6686
N#Cc1cc(S(N)(=O)=O)ccc1N1CCN(c2ccccc2)CC1,8.929,24.78,7.911
CC1(CNC(=O)NCc2ccsc2)CCCS1 (stereo not given),8.173,14.63,-0.7516
c1ncc2c(n1)CN(Cc1nc(-c3ccc4c(c3)OCO4)no1)CC2,17.65,31.19,-0.4937
Cc1nn(C)c(C)c1CCNC(C)c1ccc(-n2ccnc2C)cc1 (stereo not given),2.463,11.69,7.295
COc1ccc2c(c1)s/c(=N\C(=O)CSCC(=O)Nc1nccs1)n2C,5.155,-8.696,1.709
CNc1ncc(C(=O)N2CCCC(Cc3ccccc3OC)C2)s1 (stereo not given),-2.674,5.759,-7.789

Once more, the final 6:

* N#Cc1cc(S(N)(=O)=O)ccc1N1CCN(c2ccccc2)CC1 | TcHisRS: 8.929%; LiHisRS: 24.78%; PfKRS1: 7.911%
* CC1(CNC(=O)NCc2ccsc2)CCCS1 (stereo not given) | TcHisRS: 8.173%; LiHisRS: 14.63%; PfKRS1: -0.7516%
* c1ncc2c(n1)CN(Cc1nc(-c3ccc4c(c3)OCO4)no1)CC2 | TcHisRS: 17.65%; LiHisRS: 31.19%; PfKRS1: -0.4937%
* Cc1nn(C)c(C)c1CCNC(C)c1ccc(-n2ccnc2C)cc1 (stereo not given) | TcHisRS: 2.463%; LiHisRS: 11.69%; PfKRS1: 7.295%
* COc1ccc2c(c1)s/c(=N\C(=O)CSCC(=O)Nc1nccs1)n2C | TcHisRS: 5.155%; LiHisRS: -8.696%; PfKRS1: 1.709%
* CNc1ncc(C(=O)N2CCCC(Cc3ccccc3OC)C2)s1 (stereo not given) | TcHisRS: -2.674%; LiHisRS: 5.759%; PfKRS1: -7.789%

Source: ChEMBL document CHEMBL3988442, “University of Dundee, Small-Polar-MMV Screening Library” (2021).